Measured values as given in patent US20080242681A1, “N-4-(6-(Hetero)Aryl-Pyrimidin-4-Ylaminophenyl)-Benzenesulfonamides as Kinase Inhibitors” (Altana Pharma AG, priority 2004, published 2008).
Some entries share one result that the patent states for a list of compounds.

The chains behind the UniProt entries cited, without tags or fusion partners. Where a name states a change or a piece, a line headed by the entry shows the natural chain unless it says otherwise.
UniProt Q04759: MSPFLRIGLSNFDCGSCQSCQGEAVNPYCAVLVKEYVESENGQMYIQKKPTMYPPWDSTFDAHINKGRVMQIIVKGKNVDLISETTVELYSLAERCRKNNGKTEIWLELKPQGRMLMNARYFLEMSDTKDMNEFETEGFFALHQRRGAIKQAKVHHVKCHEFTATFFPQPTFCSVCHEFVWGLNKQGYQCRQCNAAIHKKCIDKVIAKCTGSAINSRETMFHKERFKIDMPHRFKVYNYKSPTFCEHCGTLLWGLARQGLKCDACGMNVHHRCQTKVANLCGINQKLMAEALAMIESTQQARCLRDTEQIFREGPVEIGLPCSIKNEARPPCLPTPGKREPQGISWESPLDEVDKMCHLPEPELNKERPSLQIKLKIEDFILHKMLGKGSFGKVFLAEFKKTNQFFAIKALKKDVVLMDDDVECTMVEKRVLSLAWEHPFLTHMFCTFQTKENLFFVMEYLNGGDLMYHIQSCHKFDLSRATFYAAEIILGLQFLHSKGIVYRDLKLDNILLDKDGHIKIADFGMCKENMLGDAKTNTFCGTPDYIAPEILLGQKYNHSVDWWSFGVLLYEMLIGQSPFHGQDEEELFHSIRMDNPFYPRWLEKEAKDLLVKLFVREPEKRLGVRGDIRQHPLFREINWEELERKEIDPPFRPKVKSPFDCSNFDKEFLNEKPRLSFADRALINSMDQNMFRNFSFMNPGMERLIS

Target: T1, PKCθ (Homo sapiens, UniProt Q04759)
T1 construct: made in house; host or cells: Sf21 insect cells
Assay: Protein Kinase C θ assay (SPA)
Format: biochemical
Conditions: human recombinant PKCθ from Sf21 insect cells, read-out: IC50, inhibition of PKC θ
Experimental: The compounds of formula 1 are tested for their activity on different protein kinases and PKC isoforms using a scintillation proximity assay (SPA, Amersham International plc). ^33P-labeled peptides are captured onto streptavidin coated yttrium silicate SPA beads. β-particles, emitted from the captured ^33P-labeled substrate in close proximity to the bead are able to excite the scintillant, resulting in the generation of quantifiable light. The assay is performed in a 96-well polystyrene microtiterplate (1450-514, Isoplates, Wallac, Turku, Finland). The reaction mixture (50 μl) contains 10 μl of the test compound together with 10 μl of the relevant kinase, diluted in the relevant dilution buffer, 5 μl of 10 μM phorbol myristate acetate (PMA) in H2O, 5 μl of 1.6 mM phosphatidylserine (Sigma-Aldrich Chemie GmbH, Stein-heim, Germany) in 20 mM Tris/HCL buffer pH 7.4, 5 μl of 0.3% BSA in H2O, 5 μl of 30 μM relevant substrate and 10 μl of 5 μM ATP and 0.1 μCi of ^33P-ATP (Amersham, Freiburg, Germany) in 200 mM Tris/HCL pH 7.5 and 200 mM MgCl2. […] Thereafter the MTP is counted in a Microbeta Jet (Wallac). […]
Dependent on the efficacy of the inhibitors In the various test systems, corresponding IC50 values are calculated from concentration-inhibition curves by nonlinear regression analysis using the program GraphPad Prism (GraphPad Software Inc., San Diego, Calif.). […]

Question: For `N#Cc1ccc(S(=O)(=O)Nc2ccc(Nc3cc(-c4ccc(F)cc4)ncn3)cc2)cc1` [Example 22, 4-Cyano-cyclohexa-1,5-dienesulfonic acid {4-[6-(4-fluoro-phenyl)-pyrimidin-4-ylamino]-phenyl}-amide], which IC50 is on record?
Answer: < 1000 nM
